Laboratory results as given in patent publication EP0751957B1, “PEPTIDE FRAGMENTS OF MICROBIAL STRESS PROTEINS AND PHARMACEUTICAL COMPOSITION MADE THEREOF FOR THE TREATMENT AND PREVENTION OF INFLAMMATORY DISEASES” (priority 1994, dated 2004).
Not every detail of the peptide structures is certain; ends, links or a residue may be inferred. Ends that are not written are not given here.

Test system: Peptide-specific T cell lines
Experiment: T cell proliferation assay, peptide-specific T cell lines from peptide-immunised rats
Assay type: cell-based, Lewis rats
Conditions: irradiated syngeneic spleen APC
Procedure: T cell proliferation assays: PLNC were cultured in triplicate in 200 µl flat bottom microtitre wells (Costar) at 2 x 10^5 cells per well with or without antigen. In initial experiments PLNC were tested for responsiveness to individual peptides at concentrations of 5 and 20 µg/ml, and Mt, hsp65 and PPD over a range of concentrations. Concanavalin A (2 µg/ml) was used as a positive control for T cell proliferation. Cultures were incubated for 96 h at 37°C in a humidified atmosphere of 5% CO2. Cultures were pulsed for the final 16 h with [^3H] TdR (Amersham, U.K., 1 uCi/well) and TdR uptake measured using a liquid scintillation β counter. Assays using T cell lines were performed as above using 2 x 10^4 line cells per well with irradiated (30 Gy) syngeneic accessory cells (either 3 x 10^5 splenocytes/well or 10^6 thymocytes/well). Results are expressed as mean counts per minute (cpm) of triplicate cultures. In experiments where responses to Ag were low, responses were considered significant if the stimulation index (S.I. = […]) was greater than two and Student's t tests gave p < 0.01.
T cell lines: T cell lines with specificity for mycobacterial hsp65 or peptides were generated by bulk stimulation of either hsp65-PLNC or Mt-PLNC. […]
T cell responses by immunisation with hsp65 peptides. […] Results are expressed as mean cpm of triplicate cultures. […]

## ALSTLVLNRL-NH2 [R.256-265, ALSTLVLNRL, reference compound]
  response of the line generated against M.256-270 (line P.m52): weakly

## ALSTLVVNKI-NH2 [M.256-265, ALSTLVVNKI]
  response of the line generated against M.256-270 (line P.m52): responded
